This is a selection; strong and weak results do not stand in their true shares.
Compound: COC(=O)C#Cc1ccccc1 [methyl 3-phenylpropiolate]
Test: log2 ratio of iodoacetamide-alkyne labeling of the cysteine site, DMSO over compound (competition); higher = stronger covalent engagement of the cysteine by the compound, active = 1 or more
Settings: 500 µM; treatment time 1 h; system: HEK293T cell lysate
In short: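 After 1 h at ambient temperature with vehicle or electrophile (500 µM), HEK293T lysate (2 mg/mL) was labelled for 1 h with iodoacetamide alkyne and clicked to sCIP-TMT reagents. Pooled samples were trypsin-digested overnight at 37 °C, streptavidin-enriched, acid-eluted and analysed by Orbitrap Eclipse LC-MS/MS with FAIMS, then quantified in FragPipe over three replicates with duplicate channels. A cysteine's log2 competition ratio is its mean control-channel over mean compound-channel reporter intensity. Cysteines quantified in only one replicate were not included.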

The chains behind the UniProt entries cited, without tags or fusion partners. Where a name states a change or a piece, a line headed by the entry shows the natural chain unless it says otherwise.
UniProt Q9UGI8: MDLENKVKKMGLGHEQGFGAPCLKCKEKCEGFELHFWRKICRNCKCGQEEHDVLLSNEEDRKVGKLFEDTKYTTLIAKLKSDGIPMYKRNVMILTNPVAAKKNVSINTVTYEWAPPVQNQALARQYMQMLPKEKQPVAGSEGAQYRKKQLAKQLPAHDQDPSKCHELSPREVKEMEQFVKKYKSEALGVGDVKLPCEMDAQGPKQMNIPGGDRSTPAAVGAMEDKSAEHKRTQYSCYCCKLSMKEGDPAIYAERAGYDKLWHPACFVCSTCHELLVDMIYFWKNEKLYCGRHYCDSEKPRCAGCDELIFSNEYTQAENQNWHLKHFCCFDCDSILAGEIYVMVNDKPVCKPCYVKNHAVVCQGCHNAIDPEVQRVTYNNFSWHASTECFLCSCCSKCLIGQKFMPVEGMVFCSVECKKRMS
UniProt Q9UBN7: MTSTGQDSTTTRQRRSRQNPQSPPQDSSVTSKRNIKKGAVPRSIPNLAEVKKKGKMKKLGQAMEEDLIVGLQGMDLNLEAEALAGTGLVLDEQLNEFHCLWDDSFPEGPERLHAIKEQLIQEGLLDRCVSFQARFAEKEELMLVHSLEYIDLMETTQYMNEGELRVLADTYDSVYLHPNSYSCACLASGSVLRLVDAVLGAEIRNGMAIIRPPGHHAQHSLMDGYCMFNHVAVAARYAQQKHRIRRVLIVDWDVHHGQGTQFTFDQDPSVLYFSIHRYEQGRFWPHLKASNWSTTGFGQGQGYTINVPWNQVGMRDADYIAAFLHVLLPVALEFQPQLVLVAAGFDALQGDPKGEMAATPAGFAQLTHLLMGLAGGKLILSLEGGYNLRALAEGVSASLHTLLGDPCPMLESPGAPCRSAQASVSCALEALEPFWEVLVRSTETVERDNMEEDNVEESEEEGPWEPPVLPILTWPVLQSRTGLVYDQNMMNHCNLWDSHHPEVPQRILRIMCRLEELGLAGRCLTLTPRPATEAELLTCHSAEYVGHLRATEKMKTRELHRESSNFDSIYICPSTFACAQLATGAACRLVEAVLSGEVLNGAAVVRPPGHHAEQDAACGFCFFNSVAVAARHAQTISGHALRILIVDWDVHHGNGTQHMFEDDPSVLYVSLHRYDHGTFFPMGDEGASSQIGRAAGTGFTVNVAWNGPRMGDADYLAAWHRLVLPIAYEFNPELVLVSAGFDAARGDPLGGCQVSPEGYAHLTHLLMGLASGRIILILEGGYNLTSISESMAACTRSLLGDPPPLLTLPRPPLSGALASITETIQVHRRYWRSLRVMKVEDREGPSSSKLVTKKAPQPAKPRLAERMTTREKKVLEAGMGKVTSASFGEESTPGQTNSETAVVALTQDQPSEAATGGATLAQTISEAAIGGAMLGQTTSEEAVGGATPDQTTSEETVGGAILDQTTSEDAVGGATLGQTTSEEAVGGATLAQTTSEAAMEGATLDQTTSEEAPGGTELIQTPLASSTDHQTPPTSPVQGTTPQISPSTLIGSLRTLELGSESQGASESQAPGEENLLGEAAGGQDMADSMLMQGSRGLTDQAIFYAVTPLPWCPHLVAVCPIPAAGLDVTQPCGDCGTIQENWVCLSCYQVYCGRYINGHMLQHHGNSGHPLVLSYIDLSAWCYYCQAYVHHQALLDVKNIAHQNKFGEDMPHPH
UniProt Q9NXH9: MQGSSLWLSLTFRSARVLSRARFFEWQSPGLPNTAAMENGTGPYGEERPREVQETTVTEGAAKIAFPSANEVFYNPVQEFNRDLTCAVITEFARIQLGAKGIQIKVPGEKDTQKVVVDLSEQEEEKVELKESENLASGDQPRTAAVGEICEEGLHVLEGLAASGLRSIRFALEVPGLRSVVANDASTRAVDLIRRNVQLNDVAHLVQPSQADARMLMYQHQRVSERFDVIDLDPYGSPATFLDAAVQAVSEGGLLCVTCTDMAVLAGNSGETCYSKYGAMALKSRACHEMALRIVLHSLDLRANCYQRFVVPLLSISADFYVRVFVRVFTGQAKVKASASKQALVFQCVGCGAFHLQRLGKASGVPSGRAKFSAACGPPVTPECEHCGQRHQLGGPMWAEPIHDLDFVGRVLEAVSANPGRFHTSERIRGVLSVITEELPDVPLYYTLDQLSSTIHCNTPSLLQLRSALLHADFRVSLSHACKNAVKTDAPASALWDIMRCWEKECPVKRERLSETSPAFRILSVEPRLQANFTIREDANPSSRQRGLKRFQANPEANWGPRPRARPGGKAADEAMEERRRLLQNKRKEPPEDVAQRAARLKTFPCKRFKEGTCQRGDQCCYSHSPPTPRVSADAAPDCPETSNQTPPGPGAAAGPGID
UniProt Q9P265: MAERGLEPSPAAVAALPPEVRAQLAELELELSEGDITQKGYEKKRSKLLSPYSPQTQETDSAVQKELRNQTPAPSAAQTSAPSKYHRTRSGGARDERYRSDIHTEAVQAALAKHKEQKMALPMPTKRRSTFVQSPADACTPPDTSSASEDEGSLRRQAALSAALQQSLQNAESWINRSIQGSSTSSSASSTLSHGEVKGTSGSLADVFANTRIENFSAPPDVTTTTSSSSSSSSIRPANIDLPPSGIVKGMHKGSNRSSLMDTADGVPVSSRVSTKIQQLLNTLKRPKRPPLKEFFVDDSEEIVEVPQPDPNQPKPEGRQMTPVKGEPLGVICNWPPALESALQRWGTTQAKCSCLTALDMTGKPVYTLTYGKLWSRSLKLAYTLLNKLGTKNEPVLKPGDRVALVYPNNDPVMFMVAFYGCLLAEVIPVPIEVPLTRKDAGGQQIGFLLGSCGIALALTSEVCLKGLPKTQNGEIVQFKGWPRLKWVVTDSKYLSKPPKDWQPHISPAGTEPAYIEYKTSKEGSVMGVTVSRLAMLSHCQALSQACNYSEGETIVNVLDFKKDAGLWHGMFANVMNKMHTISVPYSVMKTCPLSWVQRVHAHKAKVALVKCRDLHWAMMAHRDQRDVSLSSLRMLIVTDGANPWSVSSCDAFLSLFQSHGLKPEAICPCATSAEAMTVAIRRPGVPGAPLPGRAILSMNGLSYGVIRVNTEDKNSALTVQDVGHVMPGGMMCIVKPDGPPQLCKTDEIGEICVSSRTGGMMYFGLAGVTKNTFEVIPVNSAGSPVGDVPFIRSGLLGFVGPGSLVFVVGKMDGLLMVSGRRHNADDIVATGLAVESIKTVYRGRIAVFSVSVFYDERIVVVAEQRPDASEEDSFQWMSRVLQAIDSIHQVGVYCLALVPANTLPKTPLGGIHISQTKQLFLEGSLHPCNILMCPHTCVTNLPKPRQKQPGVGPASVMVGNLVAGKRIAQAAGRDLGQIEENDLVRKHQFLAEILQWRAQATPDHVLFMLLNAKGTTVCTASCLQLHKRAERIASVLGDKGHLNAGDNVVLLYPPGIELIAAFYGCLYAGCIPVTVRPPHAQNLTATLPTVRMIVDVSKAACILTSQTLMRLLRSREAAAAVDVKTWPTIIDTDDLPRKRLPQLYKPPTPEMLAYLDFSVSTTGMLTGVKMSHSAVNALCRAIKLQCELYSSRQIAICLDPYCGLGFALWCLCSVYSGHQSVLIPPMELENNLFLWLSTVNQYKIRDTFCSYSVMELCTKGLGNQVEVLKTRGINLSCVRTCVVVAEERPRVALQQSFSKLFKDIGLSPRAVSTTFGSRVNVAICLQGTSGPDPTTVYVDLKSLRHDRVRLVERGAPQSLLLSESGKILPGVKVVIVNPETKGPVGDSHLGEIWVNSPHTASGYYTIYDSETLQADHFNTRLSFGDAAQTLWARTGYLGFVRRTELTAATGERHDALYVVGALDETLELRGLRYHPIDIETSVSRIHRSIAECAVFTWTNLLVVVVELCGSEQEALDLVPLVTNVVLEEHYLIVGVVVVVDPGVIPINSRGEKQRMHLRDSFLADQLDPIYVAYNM
UniProt Q9NZ63: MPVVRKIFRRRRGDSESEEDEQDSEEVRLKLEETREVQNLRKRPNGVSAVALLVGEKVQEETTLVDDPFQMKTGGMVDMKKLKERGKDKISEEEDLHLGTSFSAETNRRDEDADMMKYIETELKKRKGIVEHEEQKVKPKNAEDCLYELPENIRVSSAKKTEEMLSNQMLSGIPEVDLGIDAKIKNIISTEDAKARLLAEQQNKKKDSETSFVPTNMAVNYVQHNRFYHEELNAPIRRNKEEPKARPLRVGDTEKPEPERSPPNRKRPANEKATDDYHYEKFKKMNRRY
UniProt Q9NX63: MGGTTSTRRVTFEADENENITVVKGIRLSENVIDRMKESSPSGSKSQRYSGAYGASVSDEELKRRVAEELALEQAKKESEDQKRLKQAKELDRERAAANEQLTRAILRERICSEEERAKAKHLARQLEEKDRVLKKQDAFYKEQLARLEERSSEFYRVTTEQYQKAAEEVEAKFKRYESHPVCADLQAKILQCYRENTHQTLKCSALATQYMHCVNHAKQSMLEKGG
UniProt Q9NXW9: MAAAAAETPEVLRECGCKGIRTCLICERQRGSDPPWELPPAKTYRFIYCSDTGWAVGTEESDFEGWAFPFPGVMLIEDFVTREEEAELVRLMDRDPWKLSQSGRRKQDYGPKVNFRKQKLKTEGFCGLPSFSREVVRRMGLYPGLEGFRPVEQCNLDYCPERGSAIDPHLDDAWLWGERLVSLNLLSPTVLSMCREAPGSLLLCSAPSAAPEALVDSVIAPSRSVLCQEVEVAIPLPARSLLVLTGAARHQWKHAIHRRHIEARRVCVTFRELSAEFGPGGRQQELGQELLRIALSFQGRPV
UniProt Q9NWZ5: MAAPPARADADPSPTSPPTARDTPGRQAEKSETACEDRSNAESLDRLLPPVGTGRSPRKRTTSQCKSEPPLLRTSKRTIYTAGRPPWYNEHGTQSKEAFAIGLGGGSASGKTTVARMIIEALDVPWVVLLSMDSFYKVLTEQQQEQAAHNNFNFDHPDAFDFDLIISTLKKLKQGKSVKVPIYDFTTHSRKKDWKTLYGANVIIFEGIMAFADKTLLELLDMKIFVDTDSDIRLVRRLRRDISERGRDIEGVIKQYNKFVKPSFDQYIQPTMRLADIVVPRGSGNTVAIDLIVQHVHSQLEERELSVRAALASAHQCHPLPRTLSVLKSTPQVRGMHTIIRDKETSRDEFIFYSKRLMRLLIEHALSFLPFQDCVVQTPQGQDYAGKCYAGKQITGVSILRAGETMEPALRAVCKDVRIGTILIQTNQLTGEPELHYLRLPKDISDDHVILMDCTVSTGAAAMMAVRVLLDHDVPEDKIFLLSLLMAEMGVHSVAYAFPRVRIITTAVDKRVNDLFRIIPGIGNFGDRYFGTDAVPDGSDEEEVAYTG
UniProt Q9P2I0: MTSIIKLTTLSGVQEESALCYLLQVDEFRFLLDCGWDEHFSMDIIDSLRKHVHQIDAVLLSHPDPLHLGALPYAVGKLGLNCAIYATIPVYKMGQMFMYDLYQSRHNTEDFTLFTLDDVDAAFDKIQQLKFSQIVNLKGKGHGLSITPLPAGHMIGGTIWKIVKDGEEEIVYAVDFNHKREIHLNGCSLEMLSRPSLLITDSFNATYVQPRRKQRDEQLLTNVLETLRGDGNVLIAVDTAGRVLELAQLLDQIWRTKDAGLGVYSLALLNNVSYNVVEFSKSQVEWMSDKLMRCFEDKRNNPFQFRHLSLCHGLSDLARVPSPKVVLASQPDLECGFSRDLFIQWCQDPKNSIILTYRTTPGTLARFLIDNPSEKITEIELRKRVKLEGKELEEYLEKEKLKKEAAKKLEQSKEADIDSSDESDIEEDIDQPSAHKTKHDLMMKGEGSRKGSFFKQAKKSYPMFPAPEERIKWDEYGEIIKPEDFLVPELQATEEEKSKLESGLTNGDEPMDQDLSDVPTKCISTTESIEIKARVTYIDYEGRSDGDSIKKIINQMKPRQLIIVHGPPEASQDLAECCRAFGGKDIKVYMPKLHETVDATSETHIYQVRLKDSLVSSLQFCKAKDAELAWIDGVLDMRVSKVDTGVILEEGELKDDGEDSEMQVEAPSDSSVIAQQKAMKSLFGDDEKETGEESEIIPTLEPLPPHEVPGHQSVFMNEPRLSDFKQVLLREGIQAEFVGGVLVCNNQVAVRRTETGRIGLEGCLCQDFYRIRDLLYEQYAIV
UniProt Q9NUQ3: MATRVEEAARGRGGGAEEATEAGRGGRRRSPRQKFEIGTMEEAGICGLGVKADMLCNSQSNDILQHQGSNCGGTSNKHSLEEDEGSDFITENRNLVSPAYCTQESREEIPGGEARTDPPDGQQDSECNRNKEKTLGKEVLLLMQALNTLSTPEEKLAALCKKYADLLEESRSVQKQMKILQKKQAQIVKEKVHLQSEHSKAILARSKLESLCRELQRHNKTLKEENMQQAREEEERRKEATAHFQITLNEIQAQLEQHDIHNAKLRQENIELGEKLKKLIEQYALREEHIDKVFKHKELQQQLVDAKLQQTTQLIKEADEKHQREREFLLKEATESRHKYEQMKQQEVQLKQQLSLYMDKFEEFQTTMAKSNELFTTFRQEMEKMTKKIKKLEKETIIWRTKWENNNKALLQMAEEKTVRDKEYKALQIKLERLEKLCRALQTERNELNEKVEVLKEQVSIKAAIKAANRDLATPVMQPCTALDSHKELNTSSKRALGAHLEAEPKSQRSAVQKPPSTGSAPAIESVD

log2 ratio of iodoacetamide-alkyne labeling, inactive:
FANCI C875 (UniProt Q9NVI1) 0.245
TES C416 (UniProt Q9UGI8) 0.0269
SMPD4 C614 (UniProt Q9NXE4) -0.437
HDAC6 C426 (UniProt Q9UBN7) 0.156
TRMT1 C86 (UniProt Q9NXH9) 0.357
DIP2B C333 (UniProt Q9P265) 0.345
SAE1 C214 (UniProt Q9UBE0) 0.502
RRBP1 C892 (UniProt Q9P2E9) 0.291
UniProt Q9NYV4_C1009 0.768
MPP6 C298 (UniProt Q9NZW5) 0.618
C9orf78 C145 (UniProt Q9NZ63) 0.207
CHCHD3 C112 (UniProt Q9NX63) 0.0891
FAM105A C177 (UniProt Q9NUU6) 0.221
UniProt Q9NYL2_C285 0.195
NCDN C158 (UniProt Q9UBB6) -0.218
ALKBH4 C159 (UniProt Q9NXW9) 0.233
UCKL1 C317 (UniProt Q9NWZ5) 0.327
CPSF2 C82 (UniProt Q9P2I0) 0.0445
STK39 C450 (UniProt Q9UEW8) 0.0249
TRMT1 C639 (UniProt Q9NXH9) 0.233
TBC1D13 C131 (UniProt Q9NVG8) -0.0249

4 consecutive records already listed, quoted:
log2 ratio of iodoacetamide-alkyne labeling, inactive:
TES C416 (UniProt Q9UGI8) 0.0269
SMPD4 C614 (UniProt Q9NXE4) -0.437
HDAC6 C426 (UniProt Q9UBN7) 0.156
TRMT1 C86 (UniProt Q9NXH9) 0.357

Next part.

log2 ratio of iodoacetamide-alkyne labeling, active:
UniProt Q9NUQ3_C56 1.97
